## Results of single-concentration screens

Sequences of proteins named here, by UniProt entry; tags and fusion partners are left off. Residues count along the entry.
UniProt I6X8D2, whole entry: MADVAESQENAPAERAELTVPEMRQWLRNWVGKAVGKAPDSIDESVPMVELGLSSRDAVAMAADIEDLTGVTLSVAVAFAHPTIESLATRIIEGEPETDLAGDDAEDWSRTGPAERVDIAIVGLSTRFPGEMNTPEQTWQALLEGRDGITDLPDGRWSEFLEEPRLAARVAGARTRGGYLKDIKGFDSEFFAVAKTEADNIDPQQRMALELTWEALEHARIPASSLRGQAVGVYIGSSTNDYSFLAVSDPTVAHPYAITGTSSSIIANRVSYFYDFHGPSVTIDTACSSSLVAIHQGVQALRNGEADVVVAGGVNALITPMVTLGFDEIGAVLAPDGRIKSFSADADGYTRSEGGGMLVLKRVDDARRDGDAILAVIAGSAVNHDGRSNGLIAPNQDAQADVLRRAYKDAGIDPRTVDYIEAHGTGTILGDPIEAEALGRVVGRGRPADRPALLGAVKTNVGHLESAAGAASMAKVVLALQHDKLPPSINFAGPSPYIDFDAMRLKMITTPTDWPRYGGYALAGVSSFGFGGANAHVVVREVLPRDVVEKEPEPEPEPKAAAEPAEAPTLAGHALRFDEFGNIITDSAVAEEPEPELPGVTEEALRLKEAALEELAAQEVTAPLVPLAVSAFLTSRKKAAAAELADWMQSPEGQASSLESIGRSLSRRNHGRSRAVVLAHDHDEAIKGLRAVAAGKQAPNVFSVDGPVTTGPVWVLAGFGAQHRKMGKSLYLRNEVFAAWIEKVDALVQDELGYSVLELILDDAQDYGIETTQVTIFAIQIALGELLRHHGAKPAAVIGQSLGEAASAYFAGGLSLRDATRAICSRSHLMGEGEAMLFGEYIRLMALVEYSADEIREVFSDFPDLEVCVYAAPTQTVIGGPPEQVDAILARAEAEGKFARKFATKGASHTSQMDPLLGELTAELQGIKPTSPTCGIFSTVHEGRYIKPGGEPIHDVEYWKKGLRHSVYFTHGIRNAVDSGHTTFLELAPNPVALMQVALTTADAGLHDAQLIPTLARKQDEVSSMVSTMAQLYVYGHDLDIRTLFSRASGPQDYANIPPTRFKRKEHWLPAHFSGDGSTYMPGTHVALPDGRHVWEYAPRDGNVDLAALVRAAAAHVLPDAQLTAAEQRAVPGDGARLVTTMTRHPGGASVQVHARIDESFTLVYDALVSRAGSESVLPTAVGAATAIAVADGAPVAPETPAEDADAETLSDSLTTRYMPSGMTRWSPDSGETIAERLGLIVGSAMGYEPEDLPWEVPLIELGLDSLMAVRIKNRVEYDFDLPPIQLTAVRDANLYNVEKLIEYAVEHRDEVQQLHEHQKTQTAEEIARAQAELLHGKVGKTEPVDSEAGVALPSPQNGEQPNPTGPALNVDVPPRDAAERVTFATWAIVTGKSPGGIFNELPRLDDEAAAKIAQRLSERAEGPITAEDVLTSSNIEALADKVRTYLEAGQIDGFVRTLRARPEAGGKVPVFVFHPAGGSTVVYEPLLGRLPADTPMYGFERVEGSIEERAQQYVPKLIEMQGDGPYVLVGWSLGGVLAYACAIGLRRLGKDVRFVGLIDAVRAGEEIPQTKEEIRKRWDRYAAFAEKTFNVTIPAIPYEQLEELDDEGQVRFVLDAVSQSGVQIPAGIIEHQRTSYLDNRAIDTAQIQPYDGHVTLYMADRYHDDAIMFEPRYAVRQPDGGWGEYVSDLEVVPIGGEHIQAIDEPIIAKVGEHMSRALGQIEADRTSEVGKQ
UniProt A4I591, 1-473: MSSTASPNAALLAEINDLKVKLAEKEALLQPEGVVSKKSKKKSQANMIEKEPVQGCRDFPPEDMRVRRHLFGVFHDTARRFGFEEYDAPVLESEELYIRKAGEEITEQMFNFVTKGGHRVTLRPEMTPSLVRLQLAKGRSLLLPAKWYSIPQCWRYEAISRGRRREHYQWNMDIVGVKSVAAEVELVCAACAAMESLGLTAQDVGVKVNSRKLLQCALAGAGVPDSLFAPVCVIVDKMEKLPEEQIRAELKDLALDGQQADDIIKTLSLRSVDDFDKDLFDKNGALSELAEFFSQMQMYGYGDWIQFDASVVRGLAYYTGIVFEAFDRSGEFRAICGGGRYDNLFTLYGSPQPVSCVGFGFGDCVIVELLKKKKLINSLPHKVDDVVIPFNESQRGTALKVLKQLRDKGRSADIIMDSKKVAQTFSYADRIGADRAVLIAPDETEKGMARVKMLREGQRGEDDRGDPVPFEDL
UniProt P9WNZ1, whole entry: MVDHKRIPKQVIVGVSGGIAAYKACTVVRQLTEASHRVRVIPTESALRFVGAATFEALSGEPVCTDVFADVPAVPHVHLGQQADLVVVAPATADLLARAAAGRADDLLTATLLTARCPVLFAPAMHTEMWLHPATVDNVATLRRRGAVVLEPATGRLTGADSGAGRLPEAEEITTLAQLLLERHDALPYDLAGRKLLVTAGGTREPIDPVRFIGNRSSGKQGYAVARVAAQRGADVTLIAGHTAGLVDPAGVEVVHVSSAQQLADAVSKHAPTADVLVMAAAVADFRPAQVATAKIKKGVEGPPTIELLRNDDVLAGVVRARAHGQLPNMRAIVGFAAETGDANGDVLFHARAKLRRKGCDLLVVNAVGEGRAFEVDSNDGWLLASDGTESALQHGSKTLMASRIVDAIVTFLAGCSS

Pks13 thioesterase: 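Enzyme assay of the thioesterase domain of polyketide synthase 13; the read-out is not stated. Target: Polyketide synthase Pks13, Mycobacterium tuberculosis (UniProt I6X8D2). Concentration: 30 µM. The record gives no direction; the compounds picked for IC50 retests had high values, so higher reads as stronger inhibition. About 67,000 compounds were tested under these conditions; 0.46% (about 300) showed 50% or more at least once.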
LiHisRS: 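Enzyme assay of histidyl-tRNA synthetase; the read-out is not stated. Target: Histidine-tRNA ligase, Leishmania infantum (UniProt A4I591). Concentration: 30 µM. Higher reads as stronger inhibition (inferred: compounds with an IC50 in retests scored well above the rest). The assay is labelled LdHisRS but filed under L. infantum. Size under these conditions: about 69,000 compounds, about 410 of them at 50% or above in at least one test.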
CoaBC: 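Enzyme assay of CoaBC with a phosphate dye (Biomol Green) read at 650 nm. Target: Coenzyme A biosynthesis protein CoaBC, Mycobacterium tuberculosis (UniProt P9WNZ1). Compounds at 30 µM. Higher reads as stronger inhibition, judged from the few compounds that gave an IC50. Most strong results did not repeat in a second test. Size under these conditions: about 67,000 compounds, about 40 of them at 50% or above in at least one test.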

Values are the deposited “Percent Effect”, in %.
The controls that fix the scale are not given in the record; negative values are as filed.
Compounds were drawn at random from those tested, without regard to their results.

O=C(NCCc1ccccc1)c1cccc(S(=O)(=O)NC2CCOC2)c1 (centres unmarked) read Pks13 thioesterase: -8.631%; LiHisRS: 22.12%; CoaBC: 5.308%. COCC(C)NC(=O)CCCn1cnc2ccccc2c1=O (centres unmarked) read Pks13 thioesterase: -4.853%; LiHisRS: 9.89%; CoaBC: 0.241%. With Cc1occc1C(=O)N1CC(C(=O)N2CCOCC2)C2(CCOCC2)C1 (centres unmarked) the screen gave Pks13 thioesterase: -7.928%; LiHisRS: 6.195%; CoaBC: -2.316%. CCc1nc(C2CCCN2CC(=O)Nc2cc(C)on2)no1 (centres unmarked) read Pks13 thioesterase: -17.68%; LiHisRS: 3.478%; CoaBC: -0.9032%. With c1ccc(-c2nc(CN3CCOC(Cn4cccn4)C3)no2)cc1 (centres unmarked) the screen gave Pks13 thioesterase: -14.88%; LiHisRS: 17.57%; CoaBC: 2.738%. Cc1cc(C)n(CC2CCCN2C(=O)c2ccc(N(C)C)nn2)n1 (centres unmarked) gave Pks13 thioesterase: -9.484%; LiHisRS: 10.53%; CoaBC: 11.8%. Cc1ncsc1CN1CCC2(CC1)CC(=O)N(Cc1ccc(Cl)cc1)C2 read Pks13 thioesterase: -10.57%; LiHisRS: 20%; CoaBC: -1.733%. Cc1ccccc1NC(=O)NCCn1nc(C(F)(F)F)n(C)c1=O gave Pks13 thioesterase: -14.31%; LiHisRS: 9.917%; CoaBC: 3.87%.

Cc1ccoc1C(=O)N1CCn2cc(CN3CCCC3)nc2C1 read Pks13 thioesterase: 2.457%; LiHisRS: 10%; CoaBC: 1%. For CCCc1nc(C(=O)NCc2cccnc2-n2cncn2)cs1 the result was LiHisRS: 22.37%; CoaBC: 0%. COCCOc1ccc(NC(=O)N(CC2CCOC2)C2CC2)cn1 (centres unmarked) gave Pks13 thioesterase: 1.879%; LiHisRS: 20.63%; CoaBC: 2.981%. Result for Cc1cccnc1C(Cc1ccsc1)NCc1cnc(N(C)C)nc1 (centres unmarked) was Pks13 thioesterase: 5.646%; LiHisRS: 18.84%; CoaBC: 8.936%. Result for CCNC(=O)[C@@H]1C[C@H](N)CN1C(=O)c1c[nH]c2ccccc12 was Pks13 thioesterase: -18.9%; LiHisRS: 19.47%; CoaBC: 1.384%. CCOC(=O)CCNC(=O)c1nc(OCC)ccc1Cl read Pks13 thioesterase: -16.74%; LiHisRS: 21.3%; CoaBC: 6.316%. CS(=O)(=O)N1CCC(C(=O)NC(Cc2ccsc2)c2cccnc2)CC1 (centres unmarked) read Pks13 thioesterase: -6.078%; LiHisRS: 8.247%; CoaBC: 5.327%. For CCSC(C)C(=O)N1CCC(c2nn(C)c(=O)n2-c2ccccc2)CC1 (centres unmarked) the result was Pks13 thioesterase: -7.409%; LiHisRS: 20.43%; CoaBC: 2.801%.

CCc1cnc2c(c1Nc1ccc(C)c(F)c1)c(=O)n(C)c(=O)n2C gave Pks13 thioesterase: -5.157%; LiHisRS: 15.73%; CoaBC: 4.934%. With CN(Cc1cccnc1)C1CC2(CCN(c3ncccn3)CC2)C1 the screen gave Pks13 thioesterase: -16.75%; LiHisRS: 21.1%; CoaBC: 6.588%. With Cc1cc(C)cc(N(C)S(=O)(=O)c2cc3c(c(C(=O)O)c2)OCCO3)c1 the screen gave Pks13 thioesterase: -5.081%; LiHisRS: 2.198%; CoaBC: -0.8537%.

The first 2 entries again:

| Compound | Pks13 thioesterase | LiHisRS | CoaBC |
|---|---|---|---|
| `O=C(NCCc1ccccc1)c1cccc(S(=O)(=O)NC2CCOC2)c1` (centres unmarked) | -8.631% | 22.12% | 5.308% |
| `COCC(C)NC(=O)CCCn1cnc2ccccc2c1=O` (centres unmarked) | -4.853% | 9.89% | 0.241% |

From ChEMBL document CHEMBL3988442, “University of Dundee, Small-Polar-MMV Screening Library” (2021).